From the supplement of paper PMC12009310
Structures can show the parent of a compound that is named as a salt. ± gives the standard deviation of the averaged measurements. The list shows a part of the results. Baselines shift from plate to plate; read single values as rough.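 The cells are a mouse kidney inner medullary collecting duct line, silenced either for the ciliary gene Rpgrip1l or with a non-targeting control siRNA.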

What follows are compounds tested on mIMCD3 (assay: robust z score of cell number vs plate controls; higher = more cells (less cytotoxic)). Settings: 10 µM; 48 h; siRNA: siScr.

Row | SMILES | robust z score of cell number
1 | COc1ccc2[nH]c(I)c(CCNC(C)=O)c2c1 [2-Iodomelatonin] | 1.27 ± 3.9
2 | O=C1C(SCCO)=C(SCCO)C(=O)c2ccccc21 | -44.9 ± 11
3 | Cn1ccc2cc(NC(=O)Nc3cccnc3)ccc21 | -4.09 ± 1.1
4 | COC(=O)C1=C(C)NC(C)=C(C(=O)OC(C)C)C1c1cccc2nonc12 (stereo unspecified) [Isradipine] | -24.3 ± 20
5 | CS(=O)(=O)CCNCc1nc(-c2ccc3ncnc(Nc4ccc(OCc5cccc(F)c5)c(Cl)c4)c3c2)cs1 | -141 ± 130
6 | O=C(Nc1ccccc1)N[C@@H]1C[C@@H](C(=O)O)Nc2cc(Cl)cc(Cl)c21 | -1.97 ± 1.2
7 | COc1ccc2c(c1)c(CC(=O)O)c(C)n2C(=O)c1ccc(Cl)cc1 [Indomethacin] | -12.5 ± 0.57
8 | CNc1cc(OC)c(C(=O)NC2CCN(Cc3ccccc3)C2C)cc1Cl (stereo unspecified) [Nemonapride] | -35.2 ± 21
9 | Nc1nc2c(ncn2COCCO)c(=O)[nH]1 [Acyclovir] | -39.6 ± 40
10 | Cc1sc(N)c(C(=O)c2cccc(C(F)(F)F)c2)c1C | -10.8 ± 0.35
11 | CC(C)n1nnc2cc(C(=O)O)ccc21 | -4.34 ± 5.2
12 | CC(=Cc1ccc(C(=O)O)cc1)c1ccc2c(c1)C(C)(C)CCC2(C)C | -31.4 ± 6.6
13 | COc1cc(/C=C(\C#N)C(N)=O)cc(CSc2nc3ccccc3s2)c1O | 0.768 ± 4.7
14 | CC(C)(C)NC[C@H](O)COc1nsnc1N1CCOCC1 [(S)-Timolol maleate] | 1.06 ± 5.3
15 | Nc1nnc(Sc2ncc([N+](=O)[O-])s2)s1 | -5.87 ± 4.9
16 | Cc1ccccc1C(=O)c1ccc(Nc2ccc(Br)cc2N)cc1Cl | -14.2 ± 13
17 | COc1ccc(CCN(C)CCc2ccc(OC)c(OC)c2)cc1OC [YS-035 hydrochloride] | -3.98 ± 1.8
18 | C=C1/C(=C\C=C2/CCC[C@]3(C)[C@@H]([C@H](C)/C=C/[C@@H](O)C4CC4)CC[C@@H]23)C[C@@H](O)C[C@@H]1O [Calcipotriol] | -14.4 ± 13
19 | CC(=N)NCCCC[C@H](N)C(=O)O [L-NIL hydrochloride] | -0.068 ± 0.61

5 compounds out of the list, arranged by length of the SMILES, ascending.
Row | SMILES | robust z score of cell number
19 | CC(=N)NCCCC[C@H](N)C(=O)O [L-NIL hydrochloride] | -0.068 ± 0.61
11 | CC(C)n1nnc2cc(C(=O)O)ccc21 | -4.34 ± 5.2
2 | O=C1C(SCCO)=C(SCCO)C(=O)c2ccccc21 | -44.9 ± 11
13 | COc1cc(/C=C(\C#N)C(N)=O)cc(CSc2nc3ccccc3s2)c1O | 0.768 ± 4.7
5 | CS(=O)(=O)CCNCc1nc(-c2ccc3ncnc(Nc4ccc(OCc5cccc(F)c5)c(Cl)c4)c3c2)cs1 | -141 ± 130

Continuation.

Row | SMILES | robust z score of cell number
20 | Clc1cccc(Nc2nnc(-c3ccccc3)c3ccccc23)c1 | -81 ± 44
21 | CCC(C)N(C)C(=O)c1cc2ccccc2c(-c2ccccc2Cl)n1 (stereo unspecified) | -9.08 ± 8.4
22 | CCOc1ccccc1OC(c1ccccc1)C1CNCCO1 (stereo unspecified) [Reboxetine mesylate] | 2.55 ± 1.6
23 | Cn1cccc1/C=C1\C(=O)NC(=O)c2ccccc21 | -5.13 ± 3
24 | N=C(N)N/N=C/c1c(Cl)cccc1Cl [Guanabenz acetate] | -0.82 ± 2.2
25 | COc1ccc(-c2nc(-c3ccc(-c4cccc(Cl)c4)o3)[nH]c2-c2ccc(OC)cc2)cc1 [Neurodazine] | -27.4 ± 24
26 | COc1cc2c(cc1OC)-c1c/c(=N\c3c(C)cc(C)cc3C)n(C)c(=O)n1CC2 [Trequinsin hydrochloride] | -19.8 ± 2.9
27 | O=C(c1ccc(Nc2nccc(-c3cc4ccccc4s3)n2)cc1)N1CCC(N2CCCC2)CC1 | -144 ± 110
28 | CC(=O)NNC(=O)N1Cc2ccccc2Oc2ccc(Cl)cc21 | -2.47 ± 0.41
29 | NS(=O)(=O)c1cc2c(cc1Cl)NC(C1CC3C=CC1C3)NS2(=O)=O (stereo unspecified) [Cyclothiazide] | 0.403 ± 1.1
30 | Cc1ccc(NC(=O)C(C)C)cc1C1CCN(Cc2ccc(Oc3ccc(F)c(F)c3)cc2)CC1 | -14.5 ± 13
31 | O=c1[nH]c2cc(C(F)(F)F)c(N3CCOCC3)cc2n(CP(=O)(O)O)c1=O | 0.228 ± 0.69
32 | CC1(C)CC(=O)C(C2C3=C(CC(C)(C)CC3=O)Oc3ccccc32)C(=O)C1 (stereo unspecified) | -0.747 ± 0.11
33 | Oc1ccc(/C=C/c2cc(O)cc(O)c2)cc1 [Resveratrol] | -37.1 ± 7.7
34 | CN1c2cc3c(cc2N=C(c2ccc(C(=O)O)cc2)c2ccccc21)C(C)(C)CCC3(C)C | -53.3 ± 26
35 | Cc1cccc(C#Cc2ccccc2)n1 [MPEP hydrochloride] | -2.72 ± 1.6
36 | COC(=O)c1c(-c2cc(OC)c(OC)c(OC)c2)c2ccnc(OCc3ncccn3)c2c(=O)n1Cc1ccnc(C)c1 [T 0156 hydrochloride] | -10.8 ± 0.85
37 | COc1ccc(Cl)cc1C(=O)NCCc1ccc(S(=O)(=O)NC(=O)NC2CCCCC2)cc1 [Glibenclamide] | -3.22 ± 3.5
38 | CC(O)(C(=O)Nc1ccc(S(=O)(=O)c2ccccc2)cc1)C(F)(F)F (stereo unspecified) | -10.4 ± 4.2

Each compound was assayed on mIMCD3 (assay: robust z score of cilia incidence (% cells with single cilium) vs plate controls; higher = more ciliated cells). Settings: 10 µM; 48 h; siRNA: siScr.

Row | SMILES | robust z score of cilia incidence
39 | COc1ccc2[nH]c(I)c(CCNC(C)=O)c2c1 [2-Iodomelatonin] | 2.86 ± 0.84
40 | O=C1C(SCCO)=C(SCCO)C(=O)c2ccccc21 | -39.6 ± 15
41 | Cn1ccc2cc(NC(=O)Nc3cccnc3)ccc21 | 0.0545 ± 0.35
42 | COC(=O)C1=C(C)NC(C)=C(C(=O)OC(C)C)C1c1cccc2nonc12 (stereo unspecified) [Isradipine] | 1.06 ± 2.7
43 | CS(=O)(=O)CCNCc1nc(-c2ccc3ncnc(Nc4ccc(OCc5cccc(F)c5)c(Cl)c4)c3c2)cs1 | -15 ± 1.1
44 | O=C(Nc1ccccc1)N[C@@H]1C[C@@H](C(=O)O)Nc2cc(Cl)cc(Cl)c21 | 0.753 ± 0.77
45 | COc1ccc2c(c1)c(CC(=O)O)c(C)n2C(=O)c1ccc(Cl)cc1 [Indomethacin] | 3.38 ± 4.5
46 | CNc1cc(OC)c(C(=O)NC2CCN(Cc3ccccc3)C2C)cc1Cl (stereo unspecified) [Nemonapride] | -113 ± 70
47 | Nc1nc2c(ncn2COCCO)c(=O)[nH]1 [Acyclovir] | -11.7 ± 7.2
48 | Cc1sc(N)c(C(=O)c2cccc(C(F)(F)F)c2)c1C | 1.76 ± 6.8
49 | CC(C)n1nnc2cc(C(=O)O)ccc21 | -1.31 ± 5.2
50 | CC(=Cc1ccc(C(=O)O)cc1)c1ccc2c(c1)C(C)(C)CCC2(C)C | -11.9 ± 5.5
51 | COc1cc(/C=C(\C#N)C(N)=O)cc(CSc2nc3ccccc3s2)c1O | -0.534 ± 1.4
52 | CC(C)(C)NC[C@H](O)COc1nsnc1N1CCOCC1 [(S)-Timolol maleate] | 1.46 ± 2.3
53 | Nc1nnc(Sc2ncc([N+](=O)[O-])s2)s1 | -1.25 ± 2.1
54 | Cc1ccccc1C(=O)c1ccc(Nc2ccc(Br)cc2N)cc1Cl | -26.9 ± 18
55 | COc1ccc(CCN(C)CCc2ccc(OC)c(OC)c2)cc1OC [YS-035 hydrochloride] | -0.591 ± 1.4
56 | C=C1/C(=C\C=C2/CCC[C@]3(C)[C@@H]([C@H](C)/C=C/[C@@H](O)C4CC4)CC[C@@H]23)C[C@@H](O)C[C@@H]1O [Calcipotriol] | -20.1 ± 21
57 | CC(=N)NCCCC[C@H](N)C(=O)O [L-NIL hydrochloride] | 0.627 ± 0.27

Row | SMILES | robust z score of cilia incidence
58 | Clc1cccc(Nc2nnc(-c3ccccc3)c3ccccc23)c1 | -15 ± 7.3
59 | CCC(C)N(C)C(=O)c1cc2ccccc2c(-c2ccccc2Cl)n1 (stereo unspecified) | 1.22 ± 1.4
60 | CCOc1ccccc1OC(c1ccccc1)C1CNCCO1 (stereo unspecified) [Reboxetine mesylate] | -1.8 ± 1.1
61 | Cn1cccc1/C=C1\C(=O)NC(=O)c2ccccc21 | 6.23 ± 0.48
62 | N=C(N)N/N=C/c1c(Cl)cccc1Cl [Guanabenz acetate] | -0.264 ± 2.8
63 | COc1ccc(-c2nc(-c3ccc(-c4cccc(Cl)c4)o3)[nH]c2-c2ccc(OC)cc2)cc1 [Neurodazine] | -4.27
64 | COc1cc2c(cc1OC)-c1c/c(=N\c3c(C)cc(C)cc3C)n(C)c(=O)n1CC2 [Trequinsin hydrochloride] | -36.9 ± 30
65 | O=C(c1ccc(Nc2nccc(-c3cc4ccccc4s3)n2)cc1)N1CCC(N2CCCC2)CC1 | -66.7 ± 16
66 | CC(=O)NNC(=O)N1Cc2ccccc2Oc2ccc(Cl)cc21 | 0.175 ± 0.51
67 | NS(=O)(=O)c1cc2c(cc1Cl)NC(C1CC3C=CC1C3)NS2(=O)=O (stereo unspecified) [Cyclothiazide] | -0.352 ± 2.5
68 | Cc1ccc(NC(=O)C(C)C)cc1C1CCN(Cc2ccc(Oc3ccc(F)c(F)c3)cc2)CC1 | -20.9 ± 9.5
69 | O=c1[nH]c2cc(C(F)(F)F)c(N3CCOCC3)cc2n(CP(=O)(O)O)c1=O | 0.319 ± 1.3
70 | CC1(C)CC(=O)C(C2C3=C(CC(C)(C)CC3=O)Oc3ccccc32)C(=O)C1 (stereo unspecified) | -0.00441 ± 2.5
71 | Oc1ccc(/C=C/c2cc(O)cc(O)c2)cc1 [Resveratrol] | -22.8 ± 7.3
72 | CN1c2cc3c(cc2N=C(c2ccc(C(=O)O)cc2)c2ccccc21)C(C)(C)CCC3(C)C | -35.3 ± 18
73 | Cc1cccc(C#Cc2ccccc2)n1 [MPEP hydrochloride] | -0.283 ± 0.039
74 | COC(=O)c1c(-c2cc(OC)c(OC)c(OC)c2)c2ccnc(OCc3ncccn3)c2c(=O)n1Cc1ccnc(C)c1 [T 0156 hydrochloride] | -17.9 ± 18
75 | COc1ccc(Cl)cc1C(=O)NCCc1ccc(S(=O)(=O)NC(=O)NC2CCCCC2)cc1 [Glibenclamide] | 2.02 ± 1.2
76 | CC(O)(C(=O)Nc1ccc(S(=O)(=O)c2ccccc2)cc1)C(F)(F)F (stereo unspecified) | -10.3 ± 3.4
